Measurements from PMC5493781.
These are yes or no findings as the source states them, for the method shown. Binding seen in cells or lysates may run through a third protein. These calls come from enrichment with a bait or labelling near it, and not all partners need be listed. Tags and fused reporters may be left off the sequences shown.

Amino acid sequences for entries named in this document (tags omitted).
UniProt Q15154: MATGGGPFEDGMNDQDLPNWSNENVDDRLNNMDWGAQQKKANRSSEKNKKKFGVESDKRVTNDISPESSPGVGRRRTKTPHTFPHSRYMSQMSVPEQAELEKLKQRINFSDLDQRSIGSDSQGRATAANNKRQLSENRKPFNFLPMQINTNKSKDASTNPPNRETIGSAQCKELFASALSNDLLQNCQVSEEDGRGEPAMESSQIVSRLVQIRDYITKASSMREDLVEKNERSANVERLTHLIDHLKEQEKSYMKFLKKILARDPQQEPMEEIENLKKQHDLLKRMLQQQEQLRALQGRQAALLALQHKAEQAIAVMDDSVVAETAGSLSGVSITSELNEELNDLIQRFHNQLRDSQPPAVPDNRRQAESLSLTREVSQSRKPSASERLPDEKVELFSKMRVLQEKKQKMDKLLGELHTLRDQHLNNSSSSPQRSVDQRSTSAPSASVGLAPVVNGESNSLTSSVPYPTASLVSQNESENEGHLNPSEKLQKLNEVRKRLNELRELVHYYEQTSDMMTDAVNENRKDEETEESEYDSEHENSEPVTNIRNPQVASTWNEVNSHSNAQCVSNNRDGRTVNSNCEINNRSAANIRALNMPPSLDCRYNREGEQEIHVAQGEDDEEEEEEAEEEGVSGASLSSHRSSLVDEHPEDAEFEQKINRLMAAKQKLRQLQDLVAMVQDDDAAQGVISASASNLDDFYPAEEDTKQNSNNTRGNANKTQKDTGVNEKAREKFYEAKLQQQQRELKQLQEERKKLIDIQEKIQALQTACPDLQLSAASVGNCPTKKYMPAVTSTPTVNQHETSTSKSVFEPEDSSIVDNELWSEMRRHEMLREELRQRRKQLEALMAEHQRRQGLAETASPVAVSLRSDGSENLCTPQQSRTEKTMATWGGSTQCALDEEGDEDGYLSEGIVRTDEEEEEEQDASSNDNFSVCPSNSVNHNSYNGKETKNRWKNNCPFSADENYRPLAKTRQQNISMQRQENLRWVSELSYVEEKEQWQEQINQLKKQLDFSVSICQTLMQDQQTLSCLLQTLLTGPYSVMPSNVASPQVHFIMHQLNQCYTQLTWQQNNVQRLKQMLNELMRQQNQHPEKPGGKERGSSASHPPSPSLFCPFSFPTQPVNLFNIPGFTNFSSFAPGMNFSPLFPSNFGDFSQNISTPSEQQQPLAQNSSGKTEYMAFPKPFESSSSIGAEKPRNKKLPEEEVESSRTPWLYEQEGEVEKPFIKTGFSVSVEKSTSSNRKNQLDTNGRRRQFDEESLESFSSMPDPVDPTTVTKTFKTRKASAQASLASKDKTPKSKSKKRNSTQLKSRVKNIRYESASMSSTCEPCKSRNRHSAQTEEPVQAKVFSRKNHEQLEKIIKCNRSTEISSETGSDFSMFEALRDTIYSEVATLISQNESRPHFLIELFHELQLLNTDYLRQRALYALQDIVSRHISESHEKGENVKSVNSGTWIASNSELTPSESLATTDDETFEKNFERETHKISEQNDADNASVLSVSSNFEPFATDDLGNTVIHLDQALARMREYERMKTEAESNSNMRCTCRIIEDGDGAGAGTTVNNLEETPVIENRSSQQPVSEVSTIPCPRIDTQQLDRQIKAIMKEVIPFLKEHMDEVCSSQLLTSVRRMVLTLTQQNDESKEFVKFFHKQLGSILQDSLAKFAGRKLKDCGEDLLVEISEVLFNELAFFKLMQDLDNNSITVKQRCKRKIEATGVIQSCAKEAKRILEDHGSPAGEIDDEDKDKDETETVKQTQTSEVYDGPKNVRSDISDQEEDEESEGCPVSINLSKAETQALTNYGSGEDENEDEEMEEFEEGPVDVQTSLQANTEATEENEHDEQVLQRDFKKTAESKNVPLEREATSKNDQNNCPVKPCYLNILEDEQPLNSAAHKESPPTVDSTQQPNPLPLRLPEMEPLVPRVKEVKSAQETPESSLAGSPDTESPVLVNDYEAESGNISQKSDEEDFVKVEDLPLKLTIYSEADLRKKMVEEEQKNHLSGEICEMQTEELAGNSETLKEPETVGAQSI
UniProt Q5VT06: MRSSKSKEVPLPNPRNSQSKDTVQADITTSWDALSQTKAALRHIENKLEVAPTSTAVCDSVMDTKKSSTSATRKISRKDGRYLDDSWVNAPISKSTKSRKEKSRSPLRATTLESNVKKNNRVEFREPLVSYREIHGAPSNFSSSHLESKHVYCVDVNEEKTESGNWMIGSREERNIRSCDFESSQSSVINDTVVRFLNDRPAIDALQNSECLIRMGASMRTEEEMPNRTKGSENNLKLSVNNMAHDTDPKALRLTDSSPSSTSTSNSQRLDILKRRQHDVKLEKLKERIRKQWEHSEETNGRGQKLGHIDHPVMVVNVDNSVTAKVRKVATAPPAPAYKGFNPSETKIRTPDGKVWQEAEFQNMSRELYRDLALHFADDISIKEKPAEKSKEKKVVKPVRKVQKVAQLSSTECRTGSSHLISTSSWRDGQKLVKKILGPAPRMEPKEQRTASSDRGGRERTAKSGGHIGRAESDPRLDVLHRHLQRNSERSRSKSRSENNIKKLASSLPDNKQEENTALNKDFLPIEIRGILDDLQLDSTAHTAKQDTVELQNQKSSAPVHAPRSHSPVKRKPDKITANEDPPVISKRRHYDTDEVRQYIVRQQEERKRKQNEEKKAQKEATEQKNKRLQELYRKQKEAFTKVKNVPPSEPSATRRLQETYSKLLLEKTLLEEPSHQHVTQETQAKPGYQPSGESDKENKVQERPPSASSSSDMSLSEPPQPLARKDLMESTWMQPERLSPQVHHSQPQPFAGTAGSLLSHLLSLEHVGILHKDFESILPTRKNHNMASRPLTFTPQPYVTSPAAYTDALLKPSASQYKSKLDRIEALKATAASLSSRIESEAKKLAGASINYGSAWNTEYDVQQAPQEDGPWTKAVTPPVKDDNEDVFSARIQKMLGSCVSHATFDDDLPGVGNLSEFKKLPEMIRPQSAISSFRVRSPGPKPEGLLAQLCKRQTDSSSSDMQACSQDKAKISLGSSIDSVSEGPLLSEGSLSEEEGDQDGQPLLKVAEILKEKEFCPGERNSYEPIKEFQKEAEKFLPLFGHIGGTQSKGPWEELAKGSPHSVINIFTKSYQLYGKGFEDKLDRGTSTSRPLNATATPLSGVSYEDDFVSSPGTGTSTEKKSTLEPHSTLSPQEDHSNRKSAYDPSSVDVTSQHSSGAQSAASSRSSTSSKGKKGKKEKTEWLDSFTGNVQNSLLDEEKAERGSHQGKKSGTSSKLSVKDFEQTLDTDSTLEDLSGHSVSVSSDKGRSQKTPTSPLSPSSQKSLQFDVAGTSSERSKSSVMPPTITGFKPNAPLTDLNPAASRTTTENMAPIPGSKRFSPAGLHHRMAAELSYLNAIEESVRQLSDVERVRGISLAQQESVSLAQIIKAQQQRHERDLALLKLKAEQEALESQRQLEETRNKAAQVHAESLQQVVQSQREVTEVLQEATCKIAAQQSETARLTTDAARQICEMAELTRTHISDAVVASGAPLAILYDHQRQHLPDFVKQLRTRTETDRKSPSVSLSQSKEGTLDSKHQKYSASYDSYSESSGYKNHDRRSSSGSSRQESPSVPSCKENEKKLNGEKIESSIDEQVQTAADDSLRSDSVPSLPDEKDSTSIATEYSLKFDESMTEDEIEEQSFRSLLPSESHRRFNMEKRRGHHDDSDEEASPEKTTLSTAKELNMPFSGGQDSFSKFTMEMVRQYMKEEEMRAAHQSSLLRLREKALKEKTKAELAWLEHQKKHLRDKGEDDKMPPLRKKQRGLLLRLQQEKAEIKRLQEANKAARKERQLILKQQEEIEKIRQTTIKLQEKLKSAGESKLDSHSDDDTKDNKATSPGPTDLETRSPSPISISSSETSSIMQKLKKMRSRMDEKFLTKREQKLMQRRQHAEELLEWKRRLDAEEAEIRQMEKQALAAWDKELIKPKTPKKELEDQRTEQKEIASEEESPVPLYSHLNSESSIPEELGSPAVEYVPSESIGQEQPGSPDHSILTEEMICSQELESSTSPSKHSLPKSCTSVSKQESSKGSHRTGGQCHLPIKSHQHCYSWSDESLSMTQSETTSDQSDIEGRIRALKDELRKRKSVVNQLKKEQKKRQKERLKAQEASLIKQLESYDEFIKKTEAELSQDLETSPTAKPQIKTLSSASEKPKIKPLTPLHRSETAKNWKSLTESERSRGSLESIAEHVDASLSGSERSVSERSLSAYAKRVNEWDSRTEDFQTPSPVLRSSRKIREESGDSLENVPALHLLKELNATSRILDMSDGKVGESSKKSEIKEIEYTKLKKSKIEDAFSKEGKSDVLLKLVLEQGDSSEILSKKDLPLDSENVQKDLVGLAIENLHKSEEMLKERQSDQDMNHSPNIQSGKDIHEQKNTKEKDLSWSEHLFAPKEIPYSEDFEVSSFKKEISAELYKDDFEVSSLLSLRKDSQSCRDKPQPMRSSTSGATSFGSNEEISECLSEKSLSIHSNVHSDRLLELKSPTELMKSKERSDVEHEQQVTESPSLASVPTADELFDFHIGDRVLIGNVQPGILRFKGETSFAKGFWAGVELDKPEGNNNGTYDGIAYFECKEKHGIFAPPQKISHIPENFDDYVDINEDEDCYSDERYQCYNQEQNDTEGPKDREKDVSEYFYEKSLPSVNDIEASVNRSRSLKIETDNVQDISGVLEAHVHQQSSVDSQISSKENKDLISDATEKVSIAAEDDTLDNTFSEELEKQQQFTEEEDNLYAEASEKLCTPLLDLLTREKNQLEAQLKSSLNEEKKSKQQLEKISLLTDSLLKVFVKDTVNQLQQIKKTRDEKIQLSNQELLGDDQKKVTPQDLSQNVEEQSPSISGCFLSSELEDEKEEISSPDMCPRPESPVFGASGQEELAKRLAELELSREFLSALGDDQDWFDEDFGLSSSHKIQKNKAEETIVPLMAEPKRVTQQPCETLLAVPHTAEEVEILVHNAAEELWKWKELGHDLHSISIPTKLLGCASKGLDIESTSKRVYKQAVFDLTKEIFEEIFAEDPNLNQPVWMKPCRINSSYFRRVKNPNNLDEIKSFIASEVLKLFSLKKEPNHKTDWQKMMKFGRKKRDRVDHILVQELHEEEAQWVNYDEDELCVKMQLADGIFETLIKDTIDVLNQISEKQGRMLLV

B1: FGFR1OP (FOP) (protein, UniProt O95684 1-399)
chain: MAATAAAVVAEEDTELRDLLVQTLENSGVLNRIKAELRAAVFLALEEQEKVENKTPLVNESLKKFLNTKDGRLVASLVAEFLQFFNLDFTLAVFQPETSTLQGLEGRENLARDLGIIEAEGTVGGPLLLEVIRRCQQKEKGPTTGEGALDLSDVHSPPKSPEGKTSAQTTPSKIPRYKGQGKKKTSGQKAGDKKANDEANQSDTSVSLSEPKSKSSLHLLSHETKIGSFLSNRTLDGKDKAGLCPDEDDMEGDSFFDDPIPKPEKTYGLRKEPRKQAGSLASLSDAPPLKSGLSSLAGAPSLKDSESKRGNTVLKDLKLISDKIGSLGLGTGEDDDYVDDFNSTSHRSEKSEISIGEEIEEDLSVEIDDINTSDKLDDLTQDLTVSQLSDVADYLEDVA
B2: RABL2A (protein, UniProt Q9UBK7 1-228)
chain: MAEDKTKPSELDQGKYDADDNVKIICLGDSAVGKSKLMERFLMDGFQPQQLSTYALTLYKHTATVDGKTILVDFWDTAGQERFQSMHASYYHKAHACIMVFDIQRKVTYRNLSTWYTELREFRPEIPCIVVANKIDDINVTQKSFNFAKKFSLPLYFVSAADGTNVVKLFNDAIRLAVSYKQNSQDFMDEIFQELENFSLEQEEEDVPDQEQSSSIETPSEEVASPHS

The molecules below were run against T1, FLAG-CEP19 (UniProt Q96LK0) (assay: affinity purification with mass spectrometry; FLAG-CEP19 from tetracycline-induced 293 cells purified on M2-FLAG magnetic beads, on-bead digest; lysis in 50 mM HEPES-KOH pH 8.0, 100 mM KCl, 2 mM EDTA, 0.1% NP-40, 10% glycerol; FLAG-only controls, SAINTexpress scoring).
T1 sequence: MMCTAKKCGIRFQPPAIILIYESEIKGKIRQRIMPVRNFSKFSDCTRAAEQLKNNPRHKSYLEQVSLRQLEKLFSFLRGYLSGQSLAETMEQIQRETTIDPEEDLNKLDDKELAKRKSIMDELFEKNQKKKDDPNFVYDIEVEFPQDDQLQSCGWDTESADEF
In the case of PCM1 (from UniProt Q15154 1-2024), the binding is reported as “binds”. CEP350 (from UniProt Q5VT06 1-3117) was tested, and the binding was “binds”. B1 was tested, and the binding was “binds”. With B2 the binding was “binds”.
